Laboratory results published in the supplement of paper PMC12889115.
The other results are listed elsewhere or left out. These are raw signals, not scaled to a control.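 Primary screen: polymyxin B was added at a level permeabilizing Salmonella outer membranes while sparing inner membranes. DMSO wells, both with and without polymyxin B, established maximum growth. Plate-to-plate variation meant each plate was ranked on its own, and the lowest-OD600 compounds were selected as hits.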

Tested on: Salmonella enterica serovar Typhimurium SL1344
Test: bacterial growth OD600 after 18 h with compound and polymyxin B; higher = more bacterial growth (less inhibition)
Settings: 50 µM, Mueller-Hinton broth

COc1ccc(CNC(=O)c2ccc(OC)c(OC3CCN(C(C)C)CC3)c2)cc1OC
bacterial growth OD600 (polymyxin B 1 µg/mL): 1.16

COCCOC1CCN(Cc2nc(-c3cccc(Cl)c3)no2)CC1
bacterial growth OD600 (polymyxin B 1 µg/mL): 0.968

CC(=O)N1CCC(C(=O)N2CCCC(C(=O)c3ccc(C(F)(F)F)cc3)C2)CC1 (stereo unspecified)
bacterial growth OD600 (polymyxin B 1 µg/mL): 0.769

CCOC(=O)C1(CC2CC2)CCN(Cc2c[nH]nc2-c2cccc(F)c2)CC1
bacterial growth OD600 (polymyxin B 1 µg/mL): 0.792

CCCCc1nc2cc(C(=O)N3CCC(O)CC3)ccc2o1
bacterial growth OD600 (polymyxin B 1 µg/mL): 0.862

COC(=O)CCCNC(=O)c1ccc2nc(-c3cccc(OC)c3)oc2c1
bacterial growth OD600 (polymyxin B 1 µg/mL): 0.863

Cc1ncc(CNCc2cccnc2Oc2ccc(F)c(F)c2)cn1
bacterial growth OD600 (polymyxin B 0.75 µg/mL): 0.839

COc1ccccc1/C=C/CN1CCNC(=O)C1CC(=O)N1CCCC1 (stereo unspecified)
bacterial growth OD600 (polymyxin B 1 µg/mL): 0.997

O=C1N(CCC2CCCCC2)CCCC1(O)CN1CCCC1 (stereo unspecified)
bacterial growth OD600 (polymyxin B 0.75 µg/mL): 0.857

COc1ccc(CN2C(=O)O[C@@H]3CN(C4CCCCC4)C[C@@H]32)cc1OC
bacterial growth OD600 (polymyxin B 1 µg/mL): 1.11

CN(Cc1ccccc1)c1ncccc1CNC(=O)CN1CCCC1=O
bacterial growth OD600 (polymyxin B 1 µg/mL): 1

CN(Cc1cnccn1)C(=O)c1csc2nc(-c3ccccc3Cl)cn12
bacterial growth OD600 (polymyxin B 1 µg/mL): 1.15

CN(C)S(=O)(=O)NC1CC(=O)N(CCc2cccc(Cl)c2)C1 (stereo unspecified)
bacterial growth OD600 (polymyxin B 1 µg/mL): 0.916

COc1cc(CN([C@H]2CCCCNC2=O)S(=O)(=O)c2cccc(Cl)c2)cc(OC)c1OCCc1ccsc1
bacterial growth OD600 (polymyxin B 0.75 µg/mL): 0.011

COc1cccc(OC)c1CN1CCCC(CO)(Cc2cccc(Cl)c2)C1 (stereo unspecified)
bacterial growth OD600 (polymyxin B 1 µg/mL): 0.871

CCn1ccnc1CN(C)Cc1cn(Cc2ccccc2)nc1-c1ccc2c(c1)OCO2
bacterial growth OD600 (polymyxin B 1 µg/mL): 0.544

O=C(NC1CCCC1)C1CCCN(C2CCN(c3nc4ccccc4o3)CC2)C1 (stereo unspecified)
bacterial growth OD600 (polymyxin B 0.75 µg/mL): 0.947

Cc1ccccc1C1(CC(=O)N2CCC(C(=O)N3CCCCC3)CC2)CC(=O)N(C2CCCC2)C1=O (stereo unspecified)
bacterial growth OD600 (polymyxin B 0.75 µg/mL): 0.012

CN(Cc1ccccc1)Cc1cc(C(=O)NCc2n[nH]c3c2CCCCC3)no1
bacterial growth OD600 (polymyxin B 0.75 µg/mL): 0.841

CC1(C)CC(NC2CCN(c3cccc(NC(=O)c4cccc(C(F)(F)F)c4)c3)CC2)CCO1 (stereo unspecified)
bacterial growth OD600 (polymyxin B 0.75 µg/mL): 1.02

CSCCC(=O)N1CCCC(C(=O)c2ccc(-c3ccccc3)cc2)C1 (stereo unspecified)
bacterial growth OD600 (polymyxin B 1 µg/mL): 0.013

Cc1ccccc1Oc1ncccc1CNC(=O)Cc1nonc1C
bacterial growth OD600 (polymyxin B 1 µg/mL): 0.844

CN(CCn1ccnc1)c1ccc(-c2nc(-c3ccccc3F)no2)cn1
bacterial growth OD600 (polymyxin B 1 µg/mL): 0.846

CCC(CC)N1CCCC(C(=O)Nc2ccccc2-c2ccc(OC)cc2)C1 (stereo unspecified)
bacterial growth OD600 (polymyxin B 1 µg/mL): 1.09

CN1CCN(C(=O)CCC2CCCN(C(=O)CCCCc3ccccc3)C2)CC1 (stereo unspecified)
bacterial growth OD600 (polymyxin B 1 µg/mL): 0.957

O=C(CCC1(Cc2ccc3ccccc3c2)CCC(=O)N1)NC(c1ccccn1)C(F)(F)F (stereo unspecified)
bacterial growth OD600 (polymyxin B 0.75 µg/mL): 0.781

O=C(NCCC1=CCCCC1)C1CCC(=O)N(CCCN2CCOCC2)C1 (stereo unspecified)
bacterial growth OD600 (polymyxin B 1 µg/mL): 0.847

CN1CCN([C@@H]2CCN(Cc3cccc4c3oc3ccccc34)C[C@H]2O)CC1
bacterial growth OD600 (polymyxin B 0.75 µg/mL): 0.736

O=C(c1coc(COc2ccc(F)cc2Cl)n1)N1CCC[C@H]1CO
bacterial growth OD600 (polymyxin B 1 µg/mL): 1

Cc1cccc(CNC(=O)C2CCCN(C3CCN(C(=O)C4CC4)CC3)C2)c1 (stereo unspecified)
bacterial growth OD600 (polymyxin B 0.75 µg/mL): 0.822

COc1cc(NC(=O)CCC2CCCN(CCCSC)C2)cc(OC)c1 (stereo unspecified)
bacterial growth OD600 (polymyxin B 1 µg/mL): 0.956
